The experiment concerns the target T1, C-terminal FLAG-tagged mouse WDR72 (WD repeat-containing protein 72) (mouse) (UniProt D3YYM4).
T1 sequence: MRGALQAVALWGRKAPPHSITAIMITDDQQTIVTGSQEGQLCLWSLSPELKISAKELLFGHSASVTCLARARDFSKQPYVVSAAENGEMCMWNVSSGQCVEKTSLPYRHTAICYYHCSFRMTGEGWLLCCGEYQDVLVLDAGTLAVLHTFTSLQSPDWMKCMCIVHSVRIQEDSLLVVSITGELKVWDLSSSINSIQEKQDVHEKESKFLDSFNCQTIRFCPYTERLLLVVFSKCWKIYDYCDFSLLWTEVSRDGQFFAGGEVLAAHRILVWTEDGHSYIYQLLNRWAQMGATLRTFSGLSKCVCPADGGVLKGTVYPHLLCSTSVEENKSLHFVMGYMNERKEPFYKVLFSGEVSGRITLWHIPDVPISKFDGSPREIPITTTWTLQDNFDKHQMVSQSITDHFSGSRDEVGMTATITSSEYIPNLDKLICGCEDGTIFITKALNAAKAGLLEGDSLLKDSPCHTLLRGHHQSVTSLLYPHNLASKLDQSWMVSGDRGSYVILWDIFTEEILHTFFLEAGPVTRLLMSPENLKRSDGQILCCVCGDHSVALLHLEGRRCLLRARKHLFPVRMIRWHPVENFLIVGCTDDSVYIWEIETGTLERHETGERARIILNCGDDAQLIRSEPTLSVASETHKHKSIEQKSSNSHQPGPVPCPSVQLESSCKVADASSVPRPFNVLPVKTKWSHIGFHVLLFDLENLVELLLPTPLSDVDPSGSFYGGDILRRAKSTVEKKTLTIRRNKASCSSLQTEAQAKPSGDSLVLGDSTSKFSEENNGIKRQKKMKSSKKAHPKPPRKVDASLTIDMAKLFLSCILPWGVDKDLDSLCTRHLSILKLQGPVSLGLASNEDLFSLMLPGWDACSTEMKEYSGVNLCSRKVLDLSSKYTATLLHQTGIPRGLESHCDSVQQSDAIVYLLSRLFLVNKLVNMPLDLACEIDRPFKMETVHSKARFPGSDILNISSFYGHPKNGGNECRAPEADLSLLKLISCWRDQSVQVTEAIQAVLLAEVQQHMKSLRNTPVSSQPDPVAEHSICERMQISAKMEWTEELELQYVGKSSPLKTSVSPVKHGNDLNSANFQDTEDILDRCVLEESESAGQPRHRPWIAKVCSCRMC
The experiment can be described thus: affinity purification with mass spectrometry; C-terminal FLAG-tagged mouse WDR72 overexpressed in HEK293; NP40 lysate; anti-FLAG antibody on protein A Dynabeads, 30 min at room temperature, washed twice; six CBB-stained bands cut from the SDS-PAGE gel, trypsin, LC-MS/MS.

Results are given in words; binding and its absence hold for the method and conditions named. In cells and extracts the contact can be indirect. These calls come from enrichment with a bait or labelling near it, and not all partners need be listed. Where a sequence is shown, tags or fusion partners need not be part of it.

B1: XRN2 (protein, UniProt Q9H0D6 1-950)
chain: MGVPAFFRWLSRKYPSIIVNCVEEKPKECNGVKIPVDASKPNPNDVEFDNLYLDMNGIIHPCTHPEDKPAPKNEDEMMVAIFEYIDRLFSIVRPRRLLYMAIDGVAPRAKMNQQRSRRFRASKEGMEAAVEKQRVREEILAKGGFLPPEEIKERFDSNCITPGTEFMDNLAKCLRYYIADRLNNDPGWKNLTVILSDASAPGEGEHKIMDYIRRQRAQPNHDPNTHHCLCGADADLIMLGLATHEPNFTIIREEFKPNKPKPCGLCNQFGHEVKDCEGLPREKKGKHDELADSLPCAEGEFIFLRLNVLREYLERELTMASLPFTFDVERSIDDWVFMCFFVGNDFLPHLPSLEIRENAIDRLVNIYKNVVHKTGGYLTESGYVNLQRVQMIMLAVGEVEDSIFKKRKDDEDSFRRRQKEKRKRMKRDQPAFTPSGILTPHALGSRNSPGSQVASNPRQAAYEMRMQNNSSPSISPNTSFTSDGSPSPLGGIKRKAEDSDSEPEPEDNVRLWEAGWKQRYYKNKFDVDAADEKFRRKVVQSYVEGLCWVLRYYYQGCASWKWYYPFHYAPFASDFEGIADMPSDFEKGTKPFKPLEQLMGVFPAASGNFLPPSWRKLMSDPDSSIIDFYPEDFAIDLNGKKYAWQGVALLPFVDERRLRAALEEVYPDLTPEETRRNSLGGDVLFVGKHHPLHDFILELYQTGSTEPVEVPPELCHGIQGKFSLDEEAILPDQIVCSPVPMLRDLTQNTVVSINFKDPQFAEDYIFKAVMLPGARKPAAVLKPSDWEKSSNGRQWKPQLGFNRDRRPVHLDQAAFRTLGHVMPRGSGTGIYSNAAPPPVTYQGNLYRPLLRGQAQIPKLMSNMRPQDSWRGPPPLFQQQRFDRGVGAEPLLPWNRMLQTQNAAFQPNQYQMLAGPGGYPPRRDDRGGRQGYPREGRKYPLPPPSGRYNWN
For B1, the binding entry is given as “binds”.

These data come from PMC4521966.
